Results published in PubChem BioAssay AID330 (DTP/NCI, 2004).
The list shows only some results of the screen, not a fair sample: it gathers tests that were run many times, whatever their T/C, doses with no T/C, and many T/C values between a quarter and a half above the control. Further doses and runs are listed elsewhere. T/C gives the treated animals as a percentage of the vehicle group. Some doses have a count of surviving animals in place of a T/C: the source holds a T/C of zero for them, seemingly a mark for toxic or unscored doses. Some survivor counts are full or nearly so, which does not show that the dose was tolerated: the source hardly ever lists a survival T/C far under the control, and the zero likely stands for such cases as well. Survivors were counted at the toxicity check, usually on the fifth day, unless a day is given; later deaths do not show. Schedule codes are those of the source, read here as Q, the interval in days (D) or hours (H), X, the number of doses. Some entries were tested several times; the results are listed from low to high. For survival time, the PubChem record calls one and a half times the control and up active, and a quarter to a half above the control has no call in these data; cut-offs in other NCI protocols can differ. Some T/C values are followed by the survivors on the day toxicity was checked, most often the fifth; without a count, all were alive then.

Test system: P388 leukemia ip, CD2F1 mice, survival T/C
Assay: NCI In Vivo Anticancer Drug Screen. Data for tumor model P388 Leukemia (intraperitoneal) in CD2F1 (CDF1) mice
Conditions: T/C endpoint: median survival time, higher T/C = longer survival
[1] = dose: 50.0 mg/kg/injection, schedule: Q01DX009 (ip), vehicle: saline
[2] = dose: 100.0 mg/kg/injection, schedule: Q01DX009 (ip), vehicle: saline
[3] = dose: 200.0 mg/kg/injection, schedule: Q01DX009 (ip), vehicle: saline
[4] = dose: 400.0 mg/kg/injection, schedule: Q04DX002 (ip), vehicle: saline with Tween-80
[5] = dose: 25.0 mg/kg/injection, schedule: Q01DX009 (ip), vehicle: saline
[6] = dose: 0.15 mg/kg/injection, schedule: Q01DX009 (ip), vehicle: Klucel (hydroxypropylcellulose) (HPC)

SMILES: C=C1c2cccc(O)c2C(O)=C2C(=O)[C@]3(O)C(O)=C(C(N)=O)C(=O)[C@@H](N(C)C)[C@@H]3[C@@H](O)[C@H]12
- T/C (dose: 50.0 mg/kg/injection, schedule: Q01DX005 (ip), vehicle: Klucel (hydroxypropylcellulose) (HPC), evaluated on day 20): 110 % of control
- T/C (dose: 50.0 mg/kg/injection, schedule: Q01DX005 (ip), vehicle: Klucel (hydroxypropylcellulose) (HPC), evaluated on day 30): 107 and 113 % of control
- T/C (dose: 50.0 mg/kg/injection, schedule: Q01DX005 (ip), vehicle: Klucel (hydroxypropylcellulose) (HPC), evaluated on day 60): 108 % of control
- T/C (dose: 100.0 mg/kg/injection, schedule: Q01DX005 (ip), vehicle: Klucel (hydroxypropylcellulose) (HPC), evaluated on day 20): 111 % of control
- T/C (dose: 100.0 mg/kg/injection, schedule: Q01DX005 (ip), vehicle: Klucel (hydroxypropylcellulose) (HPC), evaluated on day 30): 105, 109, 113, 118 % of control
- T/C (dose: 100.0 mg/kg/injection, schedule: Q01DX005 (ip), vehicle: Klucel (hydroxypropylcellulose) (HPC), evaluated on day 60): 110 % of control
- T/C (dose: 200.0 mg/kg/injection, schedule: Q01DX005 (ip), vehicle: Klucel (hydroxypropylcellulose) (HPC), evaluated on day 20): 153 % of control
- T/C (dose: 200.0 mg/kg/injection, schedule: Q01DX005 (ip), vehicle: Klucel (hydroxypropylcellulose) (HPC), evaluated on day 30): 119 and 136 % of control
- T/C (dose: 200.0 mg/kg/injection, schedule: Q01DX005 (ip), vehicle: Klucel (hydroxypropylcellulose) (HPC), evaluated on day 60): 133 % of control [9 of 10 alive]
- survivor count (dose: 277.77 mg/kg/injection, schedule: Q01DX005 (ip), vehicle: Klucel (hydroxypropylcellulose) (HPC)): 1 of 6
- survivor count (dose: 400.0 mg/kg/injection, schedule: Q01DX005 (ip), vehicle: Klucel (hydroxypropylcellulose) (HPC)): 0 of 6 and 1 of 10

SMILES: O=C(Nc1cccc(C(F)(F)F)c1)OC1CC2CC1C1CC3OC3C21 (stereo not given)
- survivor count (dose: 200.0 mg/kg/injection, schedule: Q01DX005 (ip), vehicle: Klucel (hydroxypropylcellulose) (HPC)): 6 of 6

SMILES: COc1cc(-c2coc3c4c(ccc3c2=O)OC(C)(C)C=C4)c(OC)c2c1OCO2
- T/C (dose: 80.0 mg/kg/injection, schedule: Q01DX009 (ip), vehicle: other): 145 % of control

SMILES: CCC(c1ccc(OCc2ccccc2)cc1)c1cc2c(cc1OC)OCO2 (stereo not given)
- survivor count (dose: 50.0 mg/kg/injection, schedule: Q01DX005 (ip), vehicle: distilled water + Tween-80): 6 of 6
- survivor count (dose: 100.0 mg/kg/injection, schedule: Q01DX005 (ip), vehicle: distilled water + Tween-80): 6 of 6
- survivor count (dose: 200.0 mg/kg/injection, schedule: Q01DX005 (ip), vehicle: distilled water + Tween-80): 6 of 6

SMILES: O=C(CCN1CCCC1)c1ccccc1
- survivor count [1]: 0 of 6
- survivor count [2]: 0 of 6
- survivor count [3]: 0 of 6

SMILES: CC(=O)OC1=C2C(C)(C)OC3CC(=O)OCC23C2CCC3(C)C(c4ccoc4)OC(=O)C4OC43C2(C)C1=O (stereo not given)
- survivor count (dose: 8.0 mg/kg/injection, schedule: Q01DX009 (ip), vehicle: saline + alcohol): 3 of 6

SMILES: CCOC(=O)c1cc(/C=C/c2ccc(Cl)cc2)on1
- survivor count (dose: 240.0 mg/kg/injection, schedule: Q01DX005 (ip), vehicle: saline with Tween-80): 0 of 6

SMILES: C=C1C(=O)OC2C1CCC1(C)CC(Br)C(=O)C(C)C21 (stereo not given)
- T/C (dose: 100.0 mg/kg/injection, schedule: Q04DX002 (ip), vehicle: saline with Tween-80): 130 % of control
- T/C (dose: 200.0 mg/kg/injection, schedule: Q04DX002 (ip), vehicle: saline with Tween-80): 131 and 133 % of control
- T/C [4]: 129 % of control [5 of 6 alive]
- survivor count [4]: 2 of 6

SMILES: Cc1cc(N(CCCl)CCCl)ccc1C=Nc1ccccc1C(=O)O
- T/C (dose: 100.0 mg/kg/injection, schedule: Q01DX009 (ip), vehicle: saline with Tween-80): 128 % of control
- survivor count (dose: 400.0 mg/kg/injection, schedule: Q01DX009 (ip), vehicle: saline with Tween-80): 5 of 6

SMILES: CCCCOC(=O)c1ccccc1C(=O)O.CCCCOC(=O)c1ccccc1C(=O)O.[Cu+2]
- survivor count (dose: 50.0 mg/kg/injection, schedule: Q04DX003 (ip), vehicle: saline with Tween-80): 1 of 6

SMILES: CCOC(=O)C(Cc1ccc(N(CCCl)CCCl)cc1)NC(=O)C(NC(C)=O)C(C)C (stereo not given)
- T/C (dose: 10.0 mg/kg/injection, schedule: Q04DX003 (ip), vehicle: water): 126 % of control

SMILES: [Cl][Pd][Cl].[NH-]C(CO)C(=O)O (stereo not given)
- survivor count (dose: 100.0 mg/kg/injection, schedule: Q01DX005 (ip), vehicle: saline): 3 of 6
- survivor count (dose: 200.0 mg/kg/injection, schedule: Q01DX005 (ip), vehicle: saline): 4 of 6

SMILES: O=C(NCc1ccccc1)OCc1c(COC(=O)NCc2ccccc2)c(-c2ccc(Cl)c(Cl)c2)n2c1CCC2
- T/C (dose: 6.25 mg/kg/injection, schedule: Q01DX009 (ip), vehicle: distilled water + Tween-80): 148 % of control
- survivor count (dose: 200.0 mg/kg/injection, schedule: Q01DX009 (ip), vehicle: distilled water + Tween-80): 3 of 6 and 6 of 6

SMILES: CC(=O)c1ccc2c(c1)N(CCCN(C)C)c1ccccc1S2
- survivor count (dose: 12.5 mg/kg/injection, schedule: Q01DX009 (ip), vehicle: saline): 3 of 6
- survivor count [5]: 3 of 6
- survivor count [1]: 3 of 6
- survivor count [3]: 1 of 6

SMILES: COC(=O)c1[nH]c(=S)[nH]c(=O)c1C
- survivor count (dose: 200.0 mg/kg/injection, schedule: Q01DX005 (ip), vehicle: saline with Tween-80): 0 of 6

SMILES: C/C=C/C=C1/OC(C)=C(C(=O)OCC)C1=O
- T/C (dose: 25.0 mg/kg/injection, schedule: Q01DX009 (ip), vehicle: Klucel (hydroxypropylcellulose) (HPC)): 127 % of control
- T/C (dose: 50.0 mg/kg/injection, schedule: Q01DX009 (ip), vehicle: Klucel (hydroxypropylcellulose) (HPC)): 127 % of control
- survivor count (dose: 100.0 mg/kg/injection, schedule: Q01DX009 (ip), vehicle: Klucel (hydroxypropylcellulose) (HPC)): 6 of 6
- survivor count (dose: 200.0 mg/kg/injection, schedule: Q01DX009 (ip), vehicle: Klucel (hydroxypropylcellulose) (HPC)): 3 of 6

SMILES: CCOC(=O)N1CCc2[nH]oc(=O)c2CC1
- survivor count [5]: 1 of 6
- survivor count [1]: 0 of 6
- survivor count [2]: 0 of 6
- survivor count [3]: 0 of 6

SMILES: COC1=CC(=O)C(CCC(C)=O)=CC1=O
- survivor count (dose: 60.0 mg/kg/injection, schedule: Q01DX005 (ip), vehicle: Klucel (hydroxypropylcellulose) (HPC)): 0 of 6
- survivor count (dose: 120.0 mg/kg/injection, schedule: Q01DX005 (ip), vehicle: Klucel (hydroxypropylcellulose) (HPC)): 0 of 6
- survivor count (dose: 240.0 mg/kg/injection, schedule: Q01DX005 (ip), vehicle: Klucel (hydroxypropylcellulose) (HPC)): 0 of 6

SMILES: Cc1c2oc3c(C)c(N)cc(C(=O)NC4C(=O)NC(C(C)C)C(=O)N5CCCC5C(=O)N(C)CC(=O)N(C)C(C(C)C)C(=O)OC4C)c3nc-2c(C(=O)NC2C(=O)NC(C(C)C)C(=O)N3CCCC3C(=O)N(C)CC(=O)N(C)C(C(C)C)C(=O)OC2C)c(N)c1=O (stereo not given)
- T/C (dose: 0.04 mg/kg/injection, schedule: Q01DX009 (ip), vehicle: Klucel (hydroxypropylcellulose) (HPC)): 140 % of control
- T/C (dose: 0.08 mg/kg/injection, schedule: Q01DX009 (ip), vehicle: Klucel (hydroxypropylcellulose) (HPC)): 130 % of control
- T/C [6]: 135 % of control
- survivor count [6]: 6 of 6
- survivor count (dose: 0.3 mg/kg/injection, schedule: Q01DX009 (ip), vehicle: Klucel (hydroxypropylcellulose) (HPC)): 1 of 6
- survivor count (dose: 0.6 mg/kg/injection, schedule: Q01DX009 (ip), vehicle: Klucel (hydroxypropylcellulose) (HPC)): 0 of 6

SMILES: Cn1c(O)c(N=NC(N)=S)c2ccccc21
- survivor count (dose: 400.0 mg/kg/injection, schedule: Q04DX003 (ip), vehicle: saline with Tween-80): 3 of 6

SMILES: NC(=S)N/N=C/c1ccccc1
- survivor count (dose: 50.0 mg/kg/injection, schedule: Q04DX003 (ip), vehicle: Klucel (hydroxypropylcellulose) (HPC)): 2 of 6
- survivor count (dose: 100.0 mg/kg/injection, schedule: Q04DX003 (ip), vehicle: Klucel (hydroxypropylcellulose) (HPC)): 1 of 6
- survivor count (dose: 200.0 mg/kg/injection, schedule: Q04DX003 (ip), vehicle: Klucel (hydroxypropylcellulose) (HPC)): 0 of 6
- survivor count (dose: 400.0 mg/kg/injection, schedule: Q04DX003 (ip), vehicle: Klucel (hydroxypropylcellulose) (HPC)): 0 of 6
